Measurements reported in PubChem BioAssay AID686937 (Drosophila RNAi Screening Center, 2013)

Screen: 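Genes in the fly needed for secretion of protein constitutively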 (primary screen)
Cells: Drosophila S2 cells expressing secreted horseradish peroxidase
Reagents: long dsRNA against Drosophila genes
Timing: about 5.5 days (5 days dsRNA, then 12 h reporter induction)
Challenge: reporter expression induced after 5 days of dsRNA, read 12 h later; inducer not stated
Measured: 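After 5 days of dsRNA and 12 h of reporter induction, medium peroxidase read by chemiluminescence and scored as per-plate z-score; higher values mean more reporter released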
Reading the numbers: z-score: higher = more reporter secreted into medium
The screen tested about 23,000 reagents; this is an unselected part of those that have a named target and a result. 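Reduced-secretion tags in replicate 1 do not always agree with the z-scores; no criterion for assigning the tags was given.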 Names joined by + are all predicted targets of the reagent. The record does not give: the amount of reagent.

no.	target gene	amplicon	z-score, replicate 1	z-score, replicate 2	z-score, replicate 3	z-score, replicate 4	phenotype, replicate 1
1	SdhB	DRSC05018	0.01	0.54	-0.16	-0.22	
2	SdhB	DRSC21367	1.35	-0.6			
3	STUB1	DRSC03282	0.3	-0.03			
4	comr	DRSC04138	0.13	0.32			
5	CCT2	DRSC18415	-0.04	-0.22			
6	CG17270	DRSC15209	0.36	0.44			
7	Traf6	DRSC18725	0.34	0.71			
8	Mec2	DRSC20054	0.14	0.13			
9	CG13151	DRSC06276	0.35	0.37			
10	Vm26Ac	DRSC02329	0.21	0.15			
11	Adck5	DRSC10890	0.46	0.46			
12	wol	DRSC03077	0.09	0.24			
13	drpr	DRSC08143	0.38	0.2			
14	drpr	DRSC08525	0.31	0.24			
15	CG6654	DRSC16084	0.5	0.42			
16	Capr	DRSC10346	0.24	0.4			
17	CG42264	DRSC18074	0.25	0.12			
18	CG42264	DRSC18075	0.39	0.12			
19	CG10950	DRSC06020	0.13	0.09			
20	CG31259	DRSC14366	0.08	0.32			
21	CG16825	DRSC02526	0.57	0.11			
22	MESR6	DRSC10720	0.15	0.4			
23	scaf	DRSC04849	0.2	0.15			
24	TwdlQ	DRSC14745	0.29	-0.34			
25	CG6700	DRSC02980	-0.93	-0.43			
26	cpa	DRSC04080	-0.51	-0.24			
27	Mmp2	DRSC06698	0.12	0.37			
28	Mmp2	DRSC22024	0.89	0.35			
29	CG32189	DRSC09511	0.58	0.37			
30	TwdlN	DRSC15813	0.32	0.35			
31	CG13297	DRSC09971	0.11	0.26			
32	bru2	DRSC01246	-0.01	-0.19			
33	bru2	DRSC01247	-1.7	-1.39			reduced secretion
34	bru2	DRSC01249	0.26	-0.29			
35	bru2	DRSC01250	-0.19	-0.05			
36	bru2	DRSC02557	-2.7	-2.79			reduced secretion
37	CG42380 + CG42379 + PIG-M + 1 more	DRSC03884	-0.6	-2.02			
38	CG42380 + CG42379 + PIG-M + 1 more	DRSC04580	0.25	0.43			
39	bou	DRSC17924	0.2	0.61			
40	CG16753	DRSC08489	0.26	0.35			
41	Vmat + CG13330	DRSC06365	0.28	0.32			
42	Rpt2	DRSC16799	-5.21	-4.39			reduced secretion
43	CG3909	DRSC14150	0.18	-0.54			
44	CG31659	DRSC00760	0.17	0.27			
45	COX7AL2	DRSC00099	0.33	0.37			
46	CanB2	DRSC07355	0.77	0.62			
47	Vps13	DRSC06817	0.18	0.25			
48	Manf	DRSC14091	0.35	0.33			
49	Tsr1	DRSC11821	0.17	0.16			
50	Hs2st	DRSC03348	0.21	0.22			
51	CG5776	DRSC02891	0.47	0.41			
52	CG43737	DRSC19609	0.32	0.53			
53	CG43737	DRSC19610	0.46	0.64			
54	cype	DRSC02356	-0.7	-0.89			
55	Bug22	DRSC02842	-0.04	-0.21			
56	CG42296	DRSC00394	0.37	0.34			
57	Hacd2	DRSC03181	0.8	0.39			

Next part; the last 2 above are carried over.
no.	target gene	amplicon	z-score, replicate 1	z-score, replicate 2	z-score, replicate 3	z-score, replicate 4	phenotype, replicate 1
56	CG42296	DRSC00394	0.37	0.34			
57	Hacd2	DRSC03181	0.8	0.39			
58	CG31636	DRSC02276	0.02	0.14			
59	MBD-like	DRSC16996	0.37	0.46			
60	Pgam5	DRSC18551	0.43	0.28			
61	Kap-alpha3	DRSC16976	0.06	-0.95			
62	Dpck	DRSC12575	0.31	0.29			
63	MED22	DRSC18175	-3.21	-3.06			reduced secretion
64	CG12491 + CG34105	DRSC04008	0.36				
65	CG12491 + CG34105	DRSC04124	0.3	0.42			
66	form3	DRSC10195	0.34	0.2			
67	form3	DRSC10297	-0.17	0.05			
68	form3	DRSC11024	0.51	0.39			
69	CG7785	DRSC16311	0.42	0.47			
70	GckIII	DRSC15729	0.21	-0.56			
71	RhoL	DRSC16824	0.08	0.31			
72	CarT	DRSC03196	0.31	0.54			
73	cyst	DRSC02023	0.14	0.22			
74	yata	DRSC15408	0.27	0.27			
75	euc	DRSC14492	0.37	0.3			
76	Trm1	DRSC02951	0.39	0.36			
77	CG31949	DRSC00110	0.07	0.3			
78	CG34038	DRSC04039	0.01				
79	CG10226	DRSC09715	0.18	0.35			
80	CG14070	DRSC02373	-0.09	0.04			
81	CG14615	DRSC20627	-0.15	0.05			
82	CG42634 + CG42635	DRSC02450	0.16	0.24			
83	Src64B	DRSC08700	0.28	0.3			
84	Hmt-1	DRSC15555	0.33	0.17			
85	path	DRSC10361	0.38	0.3			
86	Tsp97E	DRSC16019	0.04	0.22			
87	Ugt36A1	DRSC00748	0.44	0.3			
88	Mob4	DRSC04993	-0.12	-0.28			
89	CG17283	DRSC15219	0.53	0.55			
90	stg	DRSC17071	-0.47	-0.54			
91	sau	DRSC00694	-0.22	-0.31			
92	S-Lap5	DRSC06732	0.46	0.26			
93	SERCA	DRSC04600	-0.52	-1.38			
94	Ugt37E1	DRSC02248	0.08	0.42			
95	OtopLb	DRSC00594	0.04	0.35			
96	CG9782	DRSC19145	0.34	-0.2			
97	CG9782	DRSC20209	0.14	0.56			
98	CG13579	DRSC04215	0.5	0.47			
99	CG31076	DRSC16017	0.3	-0.22			
100	CG31220	DRSC22248	0.13	0.24			
101	insc	DRSC04695	-0.03	0.28			
102	CG31088	DRSC13123	0.42	0.05			
103	CG3552	DRSC10370	0.18	0.13			
104	dpr20	DRSC08265	0.21	-0.03			
